Experimental data taken from US20240125767A1, “METHOD FOR EVALUATING DRUG TOXICITY” (Public University Corporation Yokohama City University, priority 2019, published 2024).

Test system: DILI patient-derived organoid (liver organoid from iPS cells 16-24)
Procedure: Each of iPS cells derived from human healthy person (1383D2; Kyoto University iPS Research Institute) and iPS cells derived from patients with drug-induced liver injury (16-24; Yokohama City University) were cultured at 5% CO2 and 37° C. for 3 days in a medium obtained by adding 1% B-27 Supplements (GIBCO), BMP4 (25 ng/ml) and CHIR99021 (8 μM) to DMEM/F-12 (Gibco) (10 ml), to induce mesodermal cells.
Each of iPS cells derived from human healthy person (1383D2; Kyoto University iPS Research Institute) and iPS cells derived from patients with drug-induced liver injury (16-24; Yokohama City University) were cultured at 5% CO2 and 37° C. for 5 days in a medium obtained by adding Wnt3a (50 ng/mL) and activin A (100 ng/ml) to a basal medium RPMI (FUJIFILM Corporation) (2 ml), to induce endodermal progenitor cells.
Each of iPS cells derived from human healthy person (1383D2; Kyoto University iPS Research Institute) and iPS cells derived from patients with drug-induced liver injury (16-24; Yokohama City University) were cultured at 5% CO2 and 37° C. for 3 days in a medium obtained by adding 1% B-27 Supplements (GIBCO), BMP4 (25 ng/ml) and CHIR99021 (8 μM) to a basal mixed medium DMEM/F-12 (Gibco) (10 ml), to induce mesodermal progenitor cells. […]

With `CC1=C(C(=O)O)N2C(=O)[C@@H](NC(=O)[C@H](N)c3ccccc3)[C@H]2SC1` [Cephalexin, cephalexin] the “Toxicity to liver organoid produced using cells derived from a DILI patient, co-cultured with blood cells (result in words)” value was “DILI was not observed”.
